Measured values from publication PMC6941878.
Results are given in words; binding and its absence hold for the method and conditions named. In cells and extracts the contact can be indirect. Some binding calls cover weakened binding; strength is not graded here.

Chains of the proteins cited; added tags and fusions are not shown.
UniProt P56524: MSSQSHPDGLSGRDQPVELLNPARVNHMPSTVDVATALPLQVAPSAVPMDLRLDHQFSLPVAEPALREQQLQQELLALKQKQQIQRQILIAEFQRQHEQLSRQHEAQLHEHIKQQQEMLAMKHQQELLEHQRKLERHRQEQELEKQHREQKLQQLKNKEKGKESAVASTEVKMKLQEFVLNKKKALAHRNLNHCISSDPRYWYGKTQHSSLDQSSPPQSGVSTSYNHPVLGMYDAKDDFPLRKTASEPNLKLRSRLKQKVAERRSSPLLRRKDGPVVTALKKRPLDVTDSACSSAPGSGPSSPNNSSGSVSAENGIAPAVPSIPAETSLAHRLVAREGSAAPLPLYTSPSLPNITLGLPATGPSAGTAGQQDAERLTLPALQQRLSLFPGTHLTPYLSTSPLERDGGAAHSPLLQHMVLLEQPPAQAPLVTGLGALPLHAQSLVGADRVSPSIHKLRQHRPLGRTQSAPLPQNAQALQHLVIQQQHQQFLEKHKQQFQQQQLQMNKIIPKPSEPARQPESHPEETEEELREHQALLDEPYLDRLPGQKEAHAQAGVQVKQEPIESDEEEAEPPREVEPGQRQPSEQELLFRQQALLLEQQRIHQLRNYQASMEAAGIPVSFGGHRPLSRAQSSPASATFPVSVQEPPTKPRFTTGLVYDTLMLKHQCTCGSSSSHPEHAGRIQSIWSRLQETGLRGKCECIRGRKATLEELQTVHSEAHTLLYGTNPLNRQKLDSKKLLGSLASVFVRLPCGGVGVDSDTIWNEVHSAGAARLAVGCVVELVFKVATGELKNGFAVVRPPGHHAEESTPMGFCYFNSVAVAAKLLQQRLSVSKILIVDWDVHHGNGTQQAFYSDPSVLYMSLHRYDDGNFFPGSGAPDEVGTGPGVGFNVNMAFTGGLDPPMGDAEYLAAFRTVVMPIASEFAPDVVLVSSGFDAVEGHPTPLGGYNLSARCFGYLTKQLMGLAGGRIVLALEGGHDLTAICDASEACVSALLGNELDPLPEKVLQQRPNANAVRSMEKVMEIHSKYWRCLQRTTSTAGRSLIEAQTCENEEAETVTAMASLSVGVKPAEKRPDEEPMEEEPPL
UniProt O75365: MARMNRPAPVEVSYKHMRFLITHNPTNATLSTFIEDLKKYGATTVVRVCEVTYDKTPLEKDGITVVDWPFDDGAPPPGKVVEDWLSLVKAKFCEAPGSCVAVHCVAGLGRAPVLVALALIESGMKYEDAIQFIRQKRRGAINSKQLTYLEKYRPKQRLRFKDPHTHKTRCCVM

Biological target: endogenous HDAC4 in A2780 cells (human (endogenous in A2780)) (UniProt P56524)
Assay: co-IP; A2780-GFP-PRL-3 cells; mutual immunoprecipitation of PRL-3 and HDAC4, immunoblot

- binding: binds
Substance: GFP-PRL-3 fusion protein (phosphatase of regenerating liver 3) in A2780 cells (from UniProt O75365 1-173)
